For at least one compound, name, drawing or mass did not settle the structure.
Test system: rat embryonic cardiomyocytes H9C2
Test: MTT proliferation inhibition / toxicity, H9C2
Format: cell-based
Settings: 48 h
Protocol: The anti-tumor activity of the compounds of the present invention was determined by the method of methyl thiazolyl tetrazolium (MTT), Bardoxolone Methyl (CDDO-Me) being selected as a positive control medicament.
Instruments: ultra-clean bench (SW-CJ-1FD, AIRTECH, Suzhou Antai Airtech Co. Ltd.), constant-temperature CO2 incubator (3111, Thermo, USA), inverted biomicroscope (IX71, OLYMPUS, Japan), ELISA microplate reader (Model 680, BIO-RAD, USA), platform shaker (Kylin-bell lab Instruments), autoclave (YXO.SG4I.280, Shanghai Huaxian), and centrifuge (SIGMA).
Reagents: DMEM (GIBCO), fetal bovine serum (GIBCO), trypsin (SIGMA), and DMSO (SIGMA). […]
Methods: the cryopreserved cell strains were resuscitated and cultured in a CO2 incubator at a constant temperature of 37° C. with liquid being changed once daily. […] The amount of required cell suspension was calculated on the basis of 5×10^4 cells per well and the total number of wells. […]
The test medicament, positive control medicament CDDO-Me, and blank control group DMSO were prepared in DMEM media to a final concentration of 5 μM/well, each medicament being placed in 3 replicate wells, followed by incubation for 48 h. […] The absorbance of each well was examined by the ELISA microplate reader at a wavelength of 570 nm, and the cell inhibition rate was calculated according to the formula hereinafter. […]

## COC(=O)[C@]12CCC(C)(C)C[C@H]1[C@H]1C(=O)C=C3[C@@]4(C)C=C(C#N)C(=O)C(C)(C)[C@@H]4CC[C@@]3(C)[C@]1(C)CC2 [CDDO-Me, 2-cyano-3,12-dioxoolean-1,9(11)-dien-28-oic acid methyl ester, reference compound]
  Inhibitory activity (IC50) against proliferation, H9C2: 0.308*0.01 μM

Source: patent US20230023332A1, “OLEAN-PHENYLACRYLAMIDE DERIVATIVE, METHOD FOR PREPARING SAME, AND USE THEREOF” (Lunan Pharmaceutical Group Corporation, priority 2019, published 2023)
